Laboratory results from patent US5410018A, “Bombesin-related peptides” (Oregon Regional Primate Research Center, priority 1994, dated 1995).
At least one peptide structure holds a part that was inferred or is arguable (an end, a ring closure or a residue). No end group written: not given here.

Protein sequences, listed by entry. Tags and fused reporters are not part of them. Lines headed by an entry give the natural chain unless they say otherwise; changes in a name come on top.
UniProt P28336: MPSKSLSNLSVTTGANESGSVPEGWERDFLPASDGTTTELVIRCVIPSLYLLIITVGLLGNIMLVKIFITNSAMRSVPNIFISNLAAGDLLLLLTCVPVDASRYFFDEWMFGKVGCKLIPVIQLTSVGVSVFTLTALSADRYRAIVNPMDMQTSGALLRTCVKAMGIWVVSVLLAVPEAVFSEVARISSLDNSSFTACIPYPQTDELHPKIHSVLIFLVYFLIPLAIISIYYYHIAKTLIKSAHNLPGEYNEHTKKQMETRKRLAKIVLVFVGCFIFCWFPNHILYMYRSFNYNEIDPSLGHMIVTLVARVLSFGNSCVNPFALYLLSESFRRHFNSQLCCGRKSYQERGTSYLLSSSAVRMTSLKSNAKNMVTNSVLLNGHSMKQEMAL

Columns and labels:
[1] = tested on: Swiss 3T3/1R mouse embryo fibroblast cells; experiment: Thymidine uptake assay in Swiss 3T3 cells; type: cell-based; details: 24 h
Method: Swiss 3T3/1R mouse embryo fibroblast cells were plated in 24 well tissue culture plates at a density of 2×10^4 cells in 1 ml of Dublbecco's modified eagles medium (DMEM) supplemented with 40 mM glutamine (Gln) in 10% fetal bovine serum. Cells were incubated 3 or 4 days at […] in a humidified atmosphere at 95% air/5% CO2 before replacing the growth medium with DMEM/Gln and 250 μg/ml gentamicin. On the following day, 1 μCi thymidine was added to all wells, and activity was addressed by addition of test peptides alone or in the presence on 3 nM bombesin, respectively. After 24 h, the cells were rinsed with icecold isotonic saline and treated with ice-cold 5% trichloroacetic acid for 30 min. Cells were then rinsed with 95% ethanol and incubated with 0.1 N NaOH overnight at room temperature. One ml aliquots of neutralized samples were counted in a Packard Tri-Carb liquid scintillation analyzer. Test sample activity was measured in 2 independent experiments performed in quadruplicate.
This experiment was performed using 5 test samples: (1) bombesin (3 nM); (2) BIM-26336; (3) BIM-26337; (4) bombesin (3 nM) and BIM-26336; and (5) bombesin (3 nM)+BIM-26337. The results of these experiments are depicted on FIG. 6, wherein the x-axis depicts concentration of the respective SAP bombesin and the y-axis depicts disintegration per minute.

human NMB receptor = target: T1, human NMB receptor (Homo sapiens, UniProt P28336); experiment: Calcium uptake functional assay in xenopus oocytes expressing the human NMB receptor (aequorin luminometry); type: cell-based; details: xenopus oocytes coinjected with NMB receptor RNA and aequorin
T1 construct: expressed in transfected cells; host or cells: Xenopus oocytes injected with NMB receptor RNA and aequorin
Method: The ability of BIM-26336 and BIM-26337 to activate both the GRP and NMB receptors were analyzed using a calcium uptake functional assay.
Xenopus oocytes, a frog egg naturally deprived of any receptors, were coinjected with both NMB receptor RNA and calcium photoprotein aequorin. The ability of SAP bombesins to induce change in intracellular calcium levels within the cells were measured luminometrically. See Spindel, et al., Recent Progress in Hormone Research 48:365 (1993); Corjay, et al., J. Biol. Chem. 266:18771 (1991); and Giladi et al., BioTechniques 10:744 (1991), all of which are hereby incorporated by reference.
The ability of bombesin, NMB, SAP bombesin-14, and SAP bombesin-10 to agonize the receptor was tested.

In the case of “GNQWARGHFM-NH2 [BIM-26336, Gly-Asn-Gln-Trp-Ala-Arg-Gly-His-Phe-Met-NH2]”, the “thymidine uptake, peptide with bombesin” value ([1]; in the presence of 3 nM bombesin) was “substantially enhanced”, the “thymidine uptake, peptide alone” value ([1]; test peptide alone) was “induce thymidine uptake” and the “potency at the NMB receptor (intracellular calcium, relative to NMB)” value (human NMB receptor) was “nearly the same potency as NMB”.
